# In the supplement of paper PMC4604168 (melanoma cell lines):
# The list shows a part of the results. Repeats are few or missing, and single values can be far off.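 The apoptosis fraction was the count of cleaved-PARP antibody-stained nuclei relative to all DNA-stained nuclei, imaged in 1,536-well plates. Screening doses were set so most cells survived, and baseline and induced cleaved-PARP levels vary greatly across cell lines.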
# System: CBRC017 (line from a melanoma biopsy)
# Test: cleaved PARP positive nuclei fraction relative to DMSO control; melanoma cells; higher = more apoptosis
# Details: library dose: low library concentration; 72 h
row,Compound,cleaved PARP positive nuclei fraction [%]
1,"CC(C)C[C@H](NC(=O)[C@H](Cc1ccccc1)NC(=O)c1cnccn1)B(O)O [Bortezomib] + Cn1c(Nc2ccc(C(F)(F)F)cc2)nc2cc(Oc3ccnc(-c4ncc(C(F)(F)F)[nH]4)c3)ccc21 [CHIR265] (first compound 0.001 µM, partner dose 0.08 µM)",2480
2,"Cn1c(=O)n(-c2ccc(C(C)(C)C#N)cc2)c2c3cc(-c4cnc5ccccc5c4)ccc3ncc21 + C[C@]1(c2nc3c(C(N)=O)cccc3[nH]2)CCCN1 [Veliparib] (first compound 0.004 µM, partner dose 1.4 µM)",95
3,"CS(=O)(=O)CCNCc1ccc(-c2ccc3ncnc(Nc4ccc(OCc5cccc(F)c5)c(Cl)c4)c3c2)o1 [lapatinib] + COCC[n+]1c2c(n(Cc3cnccn3)c1C)C(=O)c1ccccc1C2=O [YM155] (first compound 0.8 µM, partner dose 0.0004 µM)",97.2
4,"CCCS(=O)(=O)Nc1ccc(F)c(C(=O)c2c[nH]c3ncc(Cl)cc23)c1F + Nc1nc(F)nc2c1ncn2[C@@H]1O[C@H](CO)[C@@H](O)[C@@H]1O [fludarabine] (first compound 0.08 µM, partner dose 0.2 µM)",106
5,"Cc1cc(Nc2cc(N3CCN(C)CC3)nc(/C=C/c3ccccc3)n2)n[nH]1 + CO[C@H]1C[C@@H]2CC[C@@H](C)[C@@](O)(O2)C(=O)C(=O)N2CCCC[C@H]2C(=O)O[C@H]([C@H](C)C[C@@H]2CC[C@@H](OCCO)[C@H](OC)C2)CC(=O)[C@H](C)/C=C(\C)[C@@H](O)[C@@H](OC)C(=O)[C@H](C)C[C@H](C)/C=C/C=C/C=C/1C [everolimus] (first compound 0.04 µM, partner dose 0.02 µM)",151
6,"CCCS(=O)(=O)Nc1ccc(F)c(C(=O)c2c[nH]c3ncc(Cl)cc23)c1F + Nc1ncn([C@H]2C[C@H](O)[C@@H](CO)O2)c(=O)n1 [decitabine] (first compound 0.08 µM, partner dose 0.1 µM)",128

# Some of the entries so far, tab-delimited:
row	Compound	cleaved PARP positive nuclei fraction [%]
3	CS(=O)(=O)CCNCc1ccc(-c2ccc3ncnc(Nc4ccc(OCc5cccc(F)c5)c(Cl)c4)c3c2)o1 [lapatinib] + COCC[n+]1c2c(n(Cc3cnccn3)c1C)C(=O)c1ccccc1C2=O [YM155] (first compound 0.8 µM, partner dose 0.0004 µM)	97.2
4	CCCS(=O)(=O)Nc1ccc(F)c(C(=O)c2c[nH]c3ncc(Cl)cc23)c1F + Nc1nc(F)nc2c1ncn2[C@@H]1O[C@H](CO)[C@@H](O)[C@@H]1O [fludarabine] (first compound 0.08 µM, partner dose 0.2 µM)	106
